For at least one compound, name, drawing or mass did not settle the structure.
What was measured:
[1] = tested on: mouse embryonic fibroblasts (MEFs); test: Ubiquitin-positive inclusion formation in MEFs; format: cell-based; conditions: MEFs with DEM for 12 h; p62 wt and p62 null
Description: FIGS. 37A-37B show p62 aggregates formed in MEF in the presence of GSH-depletor. […] Bar=10 μm.
Ubiquitin-p62 inclusion is formed in mouse embryonic fibroblasts. […] MEFs from p62 null embryos were transfected with a p62 expression vector.
Further, p62-positive intracellular inclusion are also formed by oxidative stress. For instance, FIGS. 37A-37B show the formation of p62- or ubiquitin-positive aggregates in MEF in the presence of glutathione (GSH) depletory, diethylmaleate (DEM). […] Thus, p62 has a function to collect misfolded and/or ubiquitinated intracellular proteins and make intracellular inclusions.

[2] = tested on: p62+/+ and p62-/- mouse embryo fibroblast (MEF); test: Cell viability by MTT assay after glutathione depletion; format: cell-based; conditions: different concentrations of DEM or BSO; p62-null versus wild type MEFs
Experimental: (§1) FIGS. 44A-44B show effects of glutathione depletion on cell viability in p62+/+ and p62−/− mouse embryo fibroblast (MEF). Cell viability was assessed with a methylthiazolium (MTT) assay, which measures mitochondrial dehydrogenase activity of viable cells spectrophotometrically. MEF (3×10^3 cells/well) in 96-well plates were treated with different concentrations of DEM (A) or BSO (B) washed with PBS and then incubated with 0.5 mg/ml MTT in PBS for 4 h. To solubilize the formazan products, […] DMSO was added. The absorption values at 570 nm were determined.
as §1, with “In addition to the above, FIGS.” for “FIGS.”, “determined. […] This death of p62-null MEFs is an apoptotic process (FIG. 48). Thus, p62 appears to have the function of regulating cellular redox status and/or cellular reactive oxygen species (ROS) generation and scavenging systems.” for “determined.”

[3] = tested on: p62+/+ and p62-/- mouse embryo fibroblast (MEF); test: Annexin V-binding assay; format: cell-based; conditions: DEM 50 mM, 6 hours; p62-null MEFs
[4] = tested on: p62+/+ and p62-/- mouse embryo fibroblast (MEF); test: Total glutathione, colorimetric assay; format: cell-based; conditions: DEM 50 mM, 12 hours; p62-null MEFs
proteasome = test: Proteasome peptidase activity (chymotrypsin-like, LLVY-AMC) in extracts of treated MEF; format: cell-based, mouse; conditions: DEM 50 mM, 12 hours; p62-null cells versus wild type

## CCOC(=O)/C=C\C(=O)OCC [DEM, diethylmaleate]
[1]
  ubiquitin-positive inclusion formation by GSH depletor: can induce the ubiquitin-positive inclusions only in the p62-wild type MEF but not in p62-null MEF
[2]
  cell viability (MTT) on glutathione depletion: p62-null MEFs die more readily compared with wild type MEFs
[3]
  Annexin V positive (apoptotic) cells: Annexin V positive cells were readily found
[4]
  cellular GSH level: further sensitively reduced
proteasome
  proteasomal activity (chymotrypsin-like): more sensitively reduced

From patent US7435872B2, “Role of p62 in aging-related disease” (Samsung Electronics, Co., Ltd., priority 2002, dated 2008)
